A number of entries come with more than one value. Only these are listed. An entry can have further records. Results that share an entry do not match, cause unknown; some may be repeats, others may stem from another dose, organism or construct than stated.
Experiment: Intrinsic thiol reactivity (kchem), competition with probe 2 for L-glutathione
Details: Table S10 known cyanating compounds; unit printed in b38 only

With N#Cn1ccnc1 [Compound 41, reference compound] the “kchem (apparent intrinsic thiol reactivity)” value was 3.69 ± 0.11 M^−1 s^−1 and 0.90 M^−1 s^−1.

From paper PMC10321483 (Chemical Science, 2023)
